Our source for the binding values is patent US20240125800A1.

Results are given in words; binding and its absence hold for the method and conditions named. Some results given as binding are weak or reduced against the parent protein; the word gives no strength.

For test [1], the target named is T1, tetraspanin CD63 on exosomes in mouse bronchoalveolar lavage fluid (mouse) (UniProt P41731).
T1 sequence (looked up): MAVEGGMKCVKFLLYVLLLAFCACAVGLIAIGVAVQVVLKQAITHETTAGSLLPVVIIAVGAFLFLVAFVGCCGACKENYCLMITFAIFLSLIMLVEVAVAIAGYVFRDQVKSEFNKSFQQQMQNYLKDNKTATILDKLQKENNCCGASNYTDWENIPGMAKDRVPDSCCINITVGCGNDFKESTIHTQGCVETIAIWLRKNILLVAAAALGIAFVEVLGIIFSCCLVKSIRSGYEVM
Put plainly: dynamic light scattering, hydrodynamic diameter against time, nanoplatform mixed with exosomes of mouse BALF in HEPES buffer at 298 K.

In test [2] the target is T1, tetraspanin CD63 on exosomes in mouse bronchoalveolar lavage fluid (mouse). Briefly: electrical impedance spectroscopy, phase angle against frequency, exosomes plus nanoplatform in HEPES buffer.
The target of test [3] is T2, tetraspanin CD9 on exosomes in mouse bronchoalveolar lavage fluid (mouse) (UniProt P40240).
T2 sequence (looked up): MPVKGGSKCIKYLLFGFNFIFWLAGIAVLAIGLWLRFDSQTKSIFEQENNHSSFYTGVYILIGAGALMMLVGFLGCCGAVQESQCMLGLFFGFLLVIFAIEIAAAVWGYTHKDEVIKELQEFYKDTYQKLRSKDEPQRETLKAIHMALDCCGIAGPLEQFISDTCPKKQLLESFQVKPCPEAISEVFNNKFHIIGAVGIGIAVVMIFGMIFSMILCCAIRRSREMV
Briefly: dynamic light scattering, hydrodynamic diameter against time, nanoplatform mixed with exosomes of mouse BALF in HEPES buffer at 298 K.

Test [4] addresses T2, tetraspanin CD9 on exosomes in mouse bronchoalveolar lavage fluid (mouse). Put plainly: electrical impedance spectroscopy, phase angle against frequency, exosomes plus nanoplatform in HEPES buffer.

With LNNHTASILNRMQANF (bound to Fe/Fe3O4 nanoparticle, 75 +/-5 peptide aptamers per nanoplatform) [Fe/Fe3O4-nanoplatform bearing peptide aptamers for binding of the tetraspanin CD63 (…)], the binding result in test [1] and in test [2] was “binds” in each case.
On to VQEFYKDTYNKLKTK (bound to Fe/Fe3O4 nanoparticle, 75 +/-5 peptide aptamers per nanoplatform) [Fe/Fe3O4-nanoplatform bearing peptide aptamers for binding of the tetraspanin CD9 (…)], for which the binding result in test [3] and in test [4] was “binds” throughout.
